Experimental data published in article PMC3703528.

Sequences of proteins named here, by UniProt entry; tags and fusion partners are left off. Residues count along the entry.
UniProt P58753: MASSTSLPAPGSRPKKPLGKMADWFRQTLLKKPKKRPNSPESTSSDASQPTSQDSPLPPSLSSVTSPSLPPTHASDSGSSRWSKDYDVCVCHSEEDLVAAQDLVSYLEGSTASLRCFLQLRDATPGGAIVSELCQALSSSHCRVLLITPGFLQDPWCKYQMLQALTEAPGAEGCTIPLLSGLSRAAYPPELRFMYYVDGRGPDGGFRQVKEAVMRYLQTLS
UniProt O60603, residues 639-782: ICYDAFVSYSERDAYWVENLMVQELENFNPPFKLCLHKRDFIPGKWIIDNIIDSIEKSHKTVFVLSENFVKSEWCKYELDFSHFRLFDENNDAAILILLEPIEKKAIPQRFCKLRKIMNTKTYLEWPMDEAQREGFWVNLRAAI
UniProt O15455, residues 754-897: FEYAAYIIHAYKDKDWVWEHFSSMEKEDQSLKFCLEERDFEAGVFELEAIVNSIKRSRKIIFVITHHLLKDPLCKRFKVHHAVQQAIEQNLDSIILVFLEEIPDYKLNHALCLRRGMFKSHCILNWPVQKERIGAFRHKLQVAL
UniProt O00206, residues 672-815: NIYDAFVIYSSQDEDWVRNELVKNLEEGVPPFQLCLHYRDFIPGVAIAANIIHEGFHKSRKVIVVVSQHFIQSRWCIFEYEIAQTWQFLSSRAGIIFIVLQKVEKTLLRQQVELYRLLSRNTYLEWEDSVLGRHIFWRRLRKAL
UniProt O60602, residues 691-836: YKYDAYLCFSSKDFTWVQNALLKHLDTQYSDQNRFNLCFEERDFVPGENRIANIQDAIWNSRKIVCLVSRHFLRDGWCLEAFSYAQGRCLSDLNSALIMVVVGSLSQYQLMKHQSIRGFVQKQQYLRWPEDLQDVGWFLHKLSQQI
UniProt Q86XR7: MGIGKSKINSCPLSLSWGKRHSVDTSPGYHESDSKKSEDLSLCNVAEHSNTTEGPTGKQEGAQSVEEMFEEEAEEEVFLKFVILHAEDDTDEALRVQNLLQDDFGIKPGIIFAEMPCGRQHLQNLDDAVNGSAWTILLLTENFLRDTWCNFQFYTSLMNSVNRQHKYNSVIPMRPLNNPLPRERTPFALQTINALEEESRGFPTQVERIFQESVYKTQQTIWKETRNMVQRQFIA
UniProt Q99836: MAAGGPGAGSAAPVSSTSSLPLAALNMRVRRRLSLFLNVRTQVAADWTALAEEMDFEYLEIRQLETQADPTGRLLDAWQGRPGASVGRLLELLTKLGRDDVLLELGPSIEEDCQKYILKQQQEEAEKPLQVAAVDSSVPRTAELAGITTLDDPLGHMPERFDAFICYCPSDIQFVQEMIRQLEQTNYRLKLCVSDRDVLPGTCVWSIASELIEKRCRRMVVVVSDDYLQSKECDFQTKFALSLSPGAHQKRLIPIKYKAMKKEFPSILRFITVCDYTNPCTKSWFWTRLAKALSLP

Assays:
Assay in all cases: two-hybrid
TIRAP = TIRAP (UniProt P58753)
TLR1 TIR domain = molecular target: T1, TLR1 TIR domain (UniProt Q15399)
T1 sequence: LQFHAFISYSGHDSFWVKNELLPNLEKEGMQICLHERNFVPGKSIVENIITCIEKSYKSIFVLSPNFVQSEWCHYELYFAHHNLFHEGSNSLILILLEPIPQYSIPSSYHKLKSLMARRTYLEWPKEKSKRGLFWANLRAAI

TLR10 TIR domain = molecular target: T2, TLR10 TIR domain (UniProt Q9BXR5)
T2 sequence: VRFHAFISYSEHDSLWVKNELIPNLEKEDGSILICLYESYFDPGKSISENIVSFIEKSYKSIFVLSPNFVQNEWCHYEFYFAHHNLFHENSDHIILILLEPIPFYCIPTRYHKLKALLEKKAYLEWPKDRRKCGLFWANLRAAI

TLR2 TIR domain = TLR2 TIR domain (UniProt O60603)
TLR3 TIR domain = TLR3 TIR domain (UniProt O15455)
TLR4 TIR domain = TLR4 TIR domain (UniProt O00206)
TLR5 TIR domain = TLR5 TIR domain (UniProt O60602)
TLR6 TIR domain = molecular target: T3, TLR6 TIR domain (UniProt Q9Y2C9)
T3 sequence: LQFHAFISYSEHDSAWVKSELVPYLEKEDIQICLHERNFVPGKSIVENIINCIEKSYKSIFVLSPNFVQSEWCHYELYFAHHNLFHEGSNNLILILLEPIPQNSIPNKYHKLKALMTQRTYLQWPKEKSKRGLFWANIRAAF

TLR7 TIR domain = molecular target: T4, TLR7 TIR domain (UniProt Q9NYK1)
T4 sequence: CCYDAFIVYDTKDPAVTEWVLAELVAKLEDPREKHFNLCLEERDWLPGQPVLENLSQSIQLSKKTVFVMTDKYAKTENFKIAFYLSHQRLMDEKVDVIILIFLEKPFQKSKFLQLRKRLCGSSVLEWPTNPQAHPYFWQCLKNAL

TLR8 TIR domain = molecular target: T5, TLR8 TIR domain (UniProt Q9NR97)
T5 sequence: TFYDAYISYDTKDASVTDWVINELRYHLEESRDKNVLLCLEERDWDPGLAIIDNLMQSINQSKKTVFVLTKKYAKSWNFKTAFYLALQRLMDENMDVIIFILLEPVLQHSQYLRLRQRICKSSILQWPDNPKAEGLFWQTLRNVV

TLR9 TIR domain = molecular target: T6, TLR9 TIR domain (UniProt Q9NR96)
T6 sequence: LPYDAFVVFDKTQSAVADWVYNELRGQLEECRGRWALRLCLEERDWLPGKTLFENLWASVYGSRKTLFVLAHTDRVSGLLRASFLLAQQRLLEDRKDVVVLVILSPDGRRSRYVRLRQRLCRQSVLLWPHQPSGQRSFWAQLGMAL

TRAM = TRAM (UniProt Q86XR7)
human MyD88 (human) = human MyD88 (human) (UniProt Q99836)

“BtpB (B. melitensis 16 M, BMEI1216) (from UniProt Q8YGE3)” was tested, and the binding (TIRAP) was “no binding”, the binding (TLR1 TIR domain) was “no binding” and the binding (TLR10 TIR domain) was “no binding”. For the same substance, the binding (TLR2 TIR domain) was “no binding”, the binding (TLR3 TIR domain) was “no binding” and the binding (TLR4 TIR domain) was “no binding”. The binding (TLR5 TIR domain) was “no binding”, the binding (TLR6 TIR domain) was “no binding” and the binding (TLR7 TIR domain) was “no binding”. For the same substance, the binding (TLR8 TIR domain) was “no binding”, the binding (TLR9 TIR domain) was “no binding” and the binding (TRAM) was “no binding”. For the same substance, the binding (human MyD88 (human)) was “binds”.

No constants are given. Whether binding was seen depends on the method and setting. For some of these results: A result given as binding can be weak or reduced; the word gives no strength.
